Data as given in article PMC6761100.
These are yes or no findings as the source states them, for the method shown. In cells and extracts the contact can be indirect. Some binding calls cover weakened binding; strength is not graded here.

T1: WHITE COLLAR 2 (WC-2) (Neurospora (endogenous in Neurospora extracts)) (UniProt P78714)
T1 sequence: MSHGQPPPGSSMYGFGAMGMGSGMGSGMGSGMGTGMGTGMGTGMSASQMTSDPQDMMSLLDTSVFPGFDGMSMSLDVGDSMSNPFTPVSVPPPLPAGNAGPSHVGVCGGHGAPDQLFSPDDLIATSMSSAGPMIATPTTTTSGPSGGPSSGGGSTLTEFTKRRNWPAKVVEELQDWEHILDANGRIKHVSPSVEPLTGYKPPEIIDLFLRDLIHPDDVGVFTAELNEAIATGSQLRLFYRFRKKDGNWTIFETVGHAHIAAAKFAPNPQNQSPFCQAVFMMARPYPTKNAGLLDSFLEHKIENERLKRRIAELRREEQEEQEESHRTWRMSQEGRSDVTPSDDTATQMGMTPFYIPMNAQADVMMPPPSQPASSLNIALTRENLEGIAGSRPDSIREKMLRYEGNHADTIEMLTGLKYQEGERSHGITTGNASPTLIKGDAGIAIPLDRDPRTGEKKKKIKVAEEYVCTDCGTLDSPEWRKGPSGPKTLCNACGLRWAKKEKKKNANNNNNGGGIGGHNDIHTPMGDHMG


Biological target: T1, WHITE COLLAR 2 (WC-2) (Neurospora (endogenous in Neurospora extracts))
Test: co-IP; WC-2 antibody and GammaBind G Sepharose beads, 2 mg Neurospora extract (50 mM HEPES pH 7.4, 137 mM NaCl, 10% glycerol); WC-2 precipitated, FRQ detected by Western blot; cultures in LL, for the wild type also at time points in DD

binding	Binder
binds	FREQUENCY (FRQ), wild type (protein, UniProt P19970 1-989) MADSGDKSQGMRPPPFDSRGHPLPRRASPDKSITLENHRLARDTSSRVTSSSALGVTESQPQLKSSPTRRNSSGESEPTNWFNQSNRNPAAAFHDESHIMEVDPPFYQKETDSSNEESRYPPGRNPVHPPGGVQLPGFRPVAAHSSAADDYRSVIDDLTVENKRLKEELKRYKQFGSDVMRKEKLFEIKVHGLPRRKKRELEATLRDFAASLGDSSESTSQRRKTGRHGTAVHSSGVSLSKHDSSSSSRSRPVDSAYNSMSTGRSSHAPHSSGPSLGRPSLTRAKSVGTQKVENYLRDTPDGLLPHHIVMTDKEKKKLVVRRLEQLFTGKISGRNMQRNQSMPSMDAPLAPEGTNMAPPRPPPEGLREACIQLQDGDNPRKNRSSKDNGSASNSGGDQTELGGTGTGSGDGSGSGGRTGNNTSPPGAIAPDQRPTRPRDLDPDRVQIPSENMDYIRHLGLVSPEFLQGSRTSYQDVAPDAEGWVYLNLLCNLAQLHMVNVTPSFIRQAVSEKSTKFQLSADGRKIRWRGGTDGTKFSSDSSEDKSQQSPMTEDTEDGSDKNGRRKKRKTQQASSEIGRFGPSRSPSDTFHYKPMFVHRNSSSIETSLEESMSQGSEDAVDESNMGNSKWDFSGSGTTQQRRKRRYDGAIVYYTGAPFCTDLSGDPGDMSPTAQMTAGREVEGSGSGDEVEHVLQRTLSGSSLPIRPLSDDRARVAEVLDFDPGNPPELVADDGSSPNDEDFVFPWCEDPAKVRIQPIAKEVMEPSGLGGVLPDDHFVMLVTTRRVVRPILQRQLSRSTTSEDTAEFIAERLAAIRTSSPLPPRSHRLTVAPLQVEYVSGQFRRLNPAPLPPPAIFYPPFSTDSSWDDGDDLASDDEEVEEVEEDSYSEGQISRRANPHFSDNNTYMRKDDLAFDTETDVRMDSDDNRLSDSGHNMRAMMPRAEAVDGDDSPLAAVTGKEVDMLHTGSSVATAGGAESGYSSSMEDVSSS
binds	FRQ S519A (protein, UniProt P19970 1-989) MADSGDKSQGMRPPPFDSRGHPLPRRASPDKSITLENHRLARDTSSRVTSSSALGVTESQPQLKSSPTRRNSSGESEPTNWFNQSNRNPAAAFHDESHIMEVDPPFYQKETDSSNEESRYPPGRNPVHPPGGVQLPGFRPVAAHSSAADDYRSVIDDLTVENKRLKEELKRYKQFGSDVMRKEKLFEIKVHGLPRRKKRELEATLRDFAASLGDSSESTSQRRKTGRHGTAVHSSGVSLSKHDSSSSSRSRPVDSAYNSMSTGRSSHAPHSSGPSLGRPSLTRAKSVGTQKVENYLRDTPDGLLPHHIVMTDKEKKKLVVRRLEQLFTGKISGRNMQRNQSMPSMDAPLAPEGTNMAPPRPPPEGLREACIQLQDGDNPRKNRSSKDNGSASNSGGDQTELGGTGTGSGDGSGSGGRTGNNTSPPGAIAPDQRPTRPRDLDPDRVQIPSENMDYIRHLGLVSPEFLQGSRTSYQDVAPDAEGWVYLNLLCNLAQLHMVNVTPSFIRQAVSEKSTKFQLAADGRKIRWRGGTDGTKFSSDSSEDKSQQSPMTEDTEDGSDKNGRRKKRKTQQASSEIGRFGPSRSPSDTFHYKPMFVHRNSSSIETSLEESMSQGSEDAVDESNMGNSKWDFSGSGTTQQRRKRRYDGAIVYYTGAPFCTDLSGDPGDMSPTAQMTAGREVEGSGSGDEVEHVLQRTLSGSSLPIRPLSDDRARVAEVLDFDPGNPPELVADDGSSPNDEDFVFPWCEDPAKVRIQPIAKEVMEPSGLGGVLPDDHFVMLVTTRRVVRPILQRQLSRSTTSEDTAEFIAERLAAIRTSSPLPPRSHRLTVAPLQVEYVSGQFRRLNPAPLPPPAIFYPPFSTDSSWDDGDDLASDDEEVEEVEEDSYSEGQISRRANPHFSDNNTYMRKDDLAFDTETDVRMDSDDNRLSDSGHNMRAMMPRAEAVDGDDSPLAAVTGKEVDMLHTGSSVATAGGAESGYSSSMEDVSSS
binds	FRQ S513R (protein, UniProt P19970 1-989) MADSGDKSQGMRPPPFDSRGHPLPRRASPDKSITLENHRLARDTSSRVTSSSALGVTESQPQLKSSPTRRNSSGESEPTNWFNQSNRNPAAAFHDESHIMEVDPPFYQKETDSSNEESRYPPGRNPVHPPGGVQLPGFRPVAAHSSAADDYRSVIDDLTVENKRLKEELKRYKQFGSDVMRKEKLFEIKVHGLPRRKKRELEATLRDFAASLGDSSESTSQRRKTGRHGTAVHSSGVSLSKHDSSSSSRSRPVDSAYNSMSTGRSSHAPHSSGPSLGRPSLTRAKSVGTQKVENYLRDTPDGLLPHHIVMTDKEKKKLVVRRLEQLFTGKISGRNMQRNQSMPSMDAPLAPEGTNMAPPRPPPEGLREACIQLQDGDNPRKNRSSKDNGSASNSGGDQTELGGTGTGSGDGSGSGGRTGNNTSPPGAIAPDQRPTRPRDLDPDRVQIPSENMDYIRHLGLVSPEFLQGSRTSYQDVAPDAEGWVYLNLLCNLAQLHMVNVTPSFIRQAVSEKRTKFQLSADGRKIRWRGGTDGTKFSSDSSEDKSQQSPMTEDTEDGSDKNGRRKKRKTQQASSEIGRFGPSRSPSDTFHYKPMFVHRNSSSIETSLEESMSQGSEDAVDESNMGNSKWDFSGSGTTQQRRKRRYDGAIVYYTGAPFCTDLSGDPGDMSPTAQMTAGREVEGSGSGDEVEHVLQRTLSGSSLPIRPLSDDRARVAEVLDFDPGNPPELVADDGSSPNDEDFVFPWCEDPAKVRIQPIAKEVMEPSGLGGVLPDDHFVMLVTTRRVVRPILQRQLSRSTTSEDTAEFIAERLAAIRTSSPLPPRSHRLTVAPLQVEYVSGQFRRLNPAPLPPPAIFYPPFSTDSSWDDGDDLASDDEEVEEVEEDSYSEGQISRRANPHFSDNNTYMRKDDLAFDTETDVRMDSDDNRLSDSGHNMRAMMPRAEAVDGDDSPLAAVTGKEVDMLHTGSSVATAGGAESGYSSSMEDVSSS
